The supplement of paper PMC4604168 (melanoma cell lines)
The other results are listed elsewhere or left out. Many values rest on one well or one pass, so single values are uncertain.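 Imaging used 1,536-well plates; nuclei positive for cleaved PARP by antibody were divided by total DNA-stained nuclei to yield the apoptosis fraction. Doses for screening kept most cells viable, and cell lines differ markedly in resting and induced cleaved-PARP levels.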

Assays:
Test in all cases: cleaved PARP positive nuclei fraction relative to DMSO control; melanoma cells; higher = more apoptosis
Conditions in all cases: library dose: low library concentration; 72 h
MZ2-MEL = system: MZ2-MEL
MeWo = system: MeWo
RPMI7951 = system: RPMI7951
RVH-421 = system: RVH-421
SkMel28 = system: SkMel28
SkMel2 = system: SkMel2
SkMel30 = system: SkMel30
SkMel5 = system: SkMel5
UACC257 = system: UACC257
UACC62 = system: UACC62

| SMILES | cleaved PARP positive nuclei fraction (MZ2-MEL) | cleaved PARP positive nuclei fraction (MeWo) | cleaved PARP positive nuclei fraction (RPMI7951) | cleaved PARP positive nuclei fraction (RVH-421) | cleaved PARP positive nuclei fraction (SkMel28) | cleaved PARP positive nuclei fraction (SkMel2) | cleaved PARP positive nuclei fraction (SkMel30) | cleaved PARP positive nuclei fraction (SkMel5) | cleaved PARP positive nuclei fraction (UACC257) | cleaved PARP positive nuclei fraction (UACC62) |
| --- | --- | --- | --- | --- | --- | --- | --- | --- | --- | --- |
| OCc1c[nH]c2ccccc12 [Indole-3-carbinol] + O=C(Nc1cccc(Cl)c1)Nc1ncc(CCNc2ncnc3ccsc23)s1 [SNS314] (first compound 0.8 µM, partner dose 0.0008 µM) | 31% | 190% | 118% | 218% | 42.3% | 109% | 48.3% | 61.9% | 65.1% | 185% |
| COc1cc(Nc2ncc(F)c(Nc3ccc4c(n3)NC(=O)C(C)(C)O4)n2)cc(OC)c1OC [Tamatinib] + OCCn1cc(-c2cnc3nnn(Cc4ccc5ncccc5c4)c3n2)cn1 [PF04217903] (first compound 0.4 µM, partner dose 1 µM) | 165% | 56.5% | 149% | 189% | 90.6% | 167% | 130% | 110% | 97.9% | 147% |
| C#Cc1cccc(Nc2ncnc3cc(OCCOC)c(OCCOC)cc23)c1 [erlotinib] + CN(C)S(=O)(=O)c1ccc2c(c1)/C(=C/c1cc3c([nH]1)CCCC3)C(=O)N2 [SU6656] (first compound 0.8 µM, partner dose 0.4 µM) | 131% | 158% | 46.6% | 324% | 125% | 98.4% | 209% | 93% | 125% | 68.1% |
| COc1cc(Nc2ncc(F)c(Nc3ccc4c(n3)NC(=O)C(C)(C)O4)n2)cc(OC)c1OC [Tamatinib] + NCC(=O)Nc1ccc(-n2nc(C(F)(F)F)cc2-c2ccc3c(ccc4ccccc43)c2)cc1 [OSU03012] (first compound 0.4 µM, partner dose 1 µM) | 92.8% | 738% | 103% | 415% | 880% | 194% | 11100% | 185% | 64.2% | 367% |
| O=C(CCCCCCC(=O)Nc1ccccc1)NO [vorinostat] + CO[C@@H]1[C@H](N(C)C(=O)c2ccccc2)C[C@H]2O[C@]1(C)n1c3ccccc3c3c4c(c5c6ccccc6n2c5c31)C(=O)NC4 [Midostaurin] (first compound 0.08 µM, partner dose 0.08 µM) | 116% | 90.6% | 192% | 165% | 112% | 159% | 62% | 190% | 72.2% | 57.4% |
| OCc1c[nH]c2ccccc12 [Indole-3-carbinol] + O=C(O)c1ccc(-c2c[nH]c3ncc(-c4ccccc4)cc23)cc1C1CCCC1 [GSK650394] (first compound 0.8 µM, partner dose 0.16 µM) | 121% | 49.2% | 93.1% | 56.4% | 106% | 115% | 64.3% | 300% | 159% | 70.8% |
| Clc1ccc(Nc2nnc(Cc3ccncc3)c3ccccc23)cc1 [vatalanib] + COc1cc2c(Oc3ccc4[nH]c(C)cc4c3F)ncnc2cc1OCCCN1CCCC1 [cediranib] (first compound 2 µM, partner dose 0.4 µM) | 229% | 195% | 51.9% | 77.7% | 41% | 79.6% | 56.4% | 45.6% | 42.1% | 100% |
| NC(=O)Nc1cc(-c2cccc(F)c2)sc1C(=O)N[C@H]1CCCNC1 + CN(NC(=O)CC(=O)NN(C)C(=S)c1ccccc1)C(=S)c1ccccc1 [STA4783] (first compound 0.02 µM, partner dose 0.006 µM) | 64.3% | 100% | 209% | 48.6% | 111% | 26.8% | 59.8% | 25.8% | 43.9% | 144% |
| CO[C@@H]1[C@H](N(C)C(=O)c2ccccc2)C[C@H]2O[C@]1(C)n1c3ccccc3c3c4c(c5c6ccccc6n2c5c31)C(=O)NC4 [Midostaurin] + Cc1cc(N2CCOCC2)cc2[nH]c(-c3c(NC[C@@H](O)c4cccc(Cl)c4)cc[nH]c3=O)nc12 [BMS536924] (first compound 0.08 µM, partner dose 0.2 µM) | 143% | 164% | 74.6% | 73.3% | 66.6% | 132% | 64.6% | 65.6% | 133% | 71.2% |
| NC(=O)Nc1cc(-c2cccc(F)c2)sc1C(=O)N[C@H]1CCCNC1 + Cc1cc(N2CCOCC2)cc2[nH]c(-c3c(NC[C@@H](O)c4cccc(Cl)c4)cc[nH]c3=O)nc12 [BMS536924] (first compound 0.02 µM, partner dose 0.2 µM) | 144% | 93.7% | 33.6% | 11.3% | 78.8% | 101% | 130% | 79.4% | 25.2% | 57.6% |
| Clc1ccc(Nc2nnc(Cc3ccncc3)c3ccccc23)cc1 [vatalanib] + COc1cc2ncnc(Nc3ccc(Oc4ccccc4)cc3)c2cc1OC [SrcI1] (first compound 2 µM, partner dose 2 µM) | 42.3% | 62.6% | 114% | 77.5% | 144% | 120% | 107% | 40.2% | 130% | 148% |
| Clc1ccc(Nc2nnc(Cc3ccncc3)c3ccccc23)cc1 [vatalanib] + Oc1cc(-c2nc(-c3ccccc3)[nH]c2-c2ccncc2)ccc1Cl [L779450] (first compound 2 µM, partner dose 0.2 µM) | 116% | 55.5% | 67.3% | 62.5% | 183% | 79.5% | 57.6% | 29.3% | 116% | 161% |
| CC(C)(C)c1cnc(CSc2cnc(NC(=O)C3CCNCC3)s2)o1 + NCC(=O)Nc1ccc(-n2nc(C(F)(F)F)cc2-c2ccc3c(ccc4ccccc43)c2)cc1 [OSU03012] (first compound 0.01 µM, partner dose 1 µM) | 140% | 239% | 49.3% | 74.4% | 35.1% | 150% | 103% | 81.5% | 81.7% | 99.9% |
| CC(=O)c1c(C)c2cnc(Nc3ccc(N4CCNCC4)cn3)nc2n(C2CCCC2)c1=O [palbociclib] + Oc1cc(-c2nc(-c3ccccc3)[nH]c2-c2ccncc2)ccc1Cl [L779450] (first compound 0.04 µM, partner dose 0.2 µM) | 107% | 36.1% | 138% | 222% | 177% | 106% | 98.3% | 104% | 283% | 209% |
| Cc1nc(Nc2ncc(C(=O)Nc3c(C)cccc3Cl)s2)cc(N2CCN(CCO)CC2)n1 [dasatanib] + Cn1cncc1[C@@](N)(c1ccc(Cl)cc1)c1ccc2c(c1)c(-c1cccc(Cl)c1)cc(=O)n2C [tipifarnib] (first compound 0.004 µM, partner dose 0.01 µM) | 121% | 126% | 101% | 141% | 110% | 244% | 218% | 147% | 110% | 225% |
| COc1cc(Nc2ncc(F)c(Nc3ccc4c(n3)NC(=O)C(C)(C)O4)n2)cc(OC)c1OC [Tamatinib] + CC1(C)NC(=O)N(c2ccc([N+](=O)[O-])c(C(F)(F)F)c2)C1=O [nilutamide] (first compound 0.4 µM, partner dose 1 µM) | 163% | 54.3% | 71.2% | 26.5% | 74.5% | 94.2% | 59.2% | 186% | 60.1% | 299% |
| CC(=O)c1c(C)c2cnc(Nc3ccc(N4CCNCC4)cn3)nc2n(C2CCCC2)c1=O [palbociclib] + CN(C)S(=O)(=O)c1ccc2c(c1)/C(=C/c1cc3c([nH]1)CCCC3)C(=O)N2 [SU6656] (first compound 0.04 µM, partner dose 0.4 µM) | 145% | 74.7% | 211% | 81.2% | 160% | 13.5% | 109% | 138% | 353% | 381% |
| C=CCn1c(=O)c2cnc(Nc3ccc(N4CCN(C)CC4)cc3)nc2n1-c1cccc(C(C)(C)O)n1 + CN(C)S(=O)(=O)c1ccc2c(c1)/C(=C/c1cc3c([nH]1)CCCC3)C(=O)N2 [SU6656] (first compound 0.02 µM, partner dose 0.4 µM) | 237% | 98.8% | 47.2% | 171% | 62% | 48.3% | 255% | 154% | 538% | 96.9% |
| C=CCn1c(=O)c2cnc(Nc3ccc(N4CCN(C)CC4)cc3)nc2n1-c1cccc(C(C)(C)O)n1 + Cc1cc(N2CCOCC2)cc2[nH]c(-c3c(NC[C@@H](O)c4cccc(Cl)c4)cc[nH]c3=O)nc12 [BMS536924] (first compound 0.02 µM, partner dose 0.2 µM) | 245% | 111% | 138% | 83.5% | 69.5% | 131% | 158% | 123% | 77.4% | 131% |
| OCc1c[nH]c2ccccc12 [Indole-3-carbinol] + Cn1cncc1[C@@](N)(c1ccc(Cl)cc1)c1ccc2c(c1)c(-c1cccc(Cl)c1)cc(=O)n2C [tipifarnib] (first compound 0.8 µM, partner dose 0.01 µM) | 74.7% | 113% | 68.8% | 76.1% | 131% | 61.7% | 67.4% | 79.2% | 195% | 533% |
| C=CCNC1=C2C[C@@H](C)C[C@H](OC)[C@H](O)[C@@H](C)/C=C(\C)[C@H](OC(N)=O)[C@@H](OC)/C=C\C=C(/C)C(=O)NC(=CC1=O)C2=O [Tanespimycin] + Cc1cc([N+](=O)[O-])ccc1NS(=O)(=O)c1cc(Cl)ccc1Cl [FH535] (first compound 0.002 µM, partner dose 1 µM) | 109% | 87.6% | 51.4% | 123% | 112% | 60.5% | 141% | 87.6% | 95.5% | 54.3% |
| Clc1ccc(Nc2nnc(Cc3ccncc3)c3ccccc23)cc1 [vatalanib] + O=C(Nc1ccccc1)c1cc([N+](=O)[O-])ccc1Cl [GW9662] (first compound 2 µM, partner dose 2 µM) | 131% | 126% | 83.5% | 134% | 91.5% | 56.5% | 121% | 79% | 67.6% | 135% |

Reprinted at random: 2 entries already listed

| SMILES | cleaved PARP positive nuclei fraction (MZ2-MEL) | cleaved PARP positive nuclei fraction (MeWo) | cleaved PARP positive nuclei fraction (RPMI7951) | cleaved PARP positive nuclei fraction (RVH-421) | cleaved PARP positive nuclei fraction (SkMel28) | cleaved PARP positive nuclei fraction (SkMel2) | cleaved PARP positive nuclei fraction (SkMel30) | cleaved PARP positive nuclei fraction (SkMel5) | cleaved PARP positive nuclei fraction (UACC257) | cleaved PARP positive nuclei fraction (UACC62) |
| --- | --- | --- | --- | --- | --- | --- | --- | --- | --- | --- |
| Clc1ccc(Nc2nnc(Cc3ccncc3)c3ccccc23)cc1 [vatalanib] + COc1cc2ncnc(Nc3ccc(Oc4ccccc4)cc3)c2cc1OC [SrcI1] (first compound 2 µM, partner dose 2 µM) | 42.3% | 62.6% | 114% | 77.5% | 144% | 120% | 107% | 40.2% | 130% | 148% |
| NC(=O)Nc1cc(-c2cccc(F)c2)sc1C(=O)N[C@H]1CCCNC1 + CN(NC(=O)CC(=O)NN(C)C(=S)c1ccccc1)C(=S)c1ccccc1 [STA4783] (first compound 0.02 µM, partner dose 0.006 µM) | 64.3% | 100% | 209% | 48.6% | 111% | 26.8% | 59.8% | 25.8% | 43.9% | 144% |
